Each number is a percent effect as filed. The record does not define 0% and 100%; most values in the screen are far below 50% and negative numbers occur (in some assays of this library far below -100). This is an unselected part of the compounds tested. A dash means the value is not listed here; it may have been measured.

Mtb growth Cornell: 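Whole-cell assay for inhibitors of Mycobacterium tuberculosis growth, labelled Cornell in the record; the read-out is not stated. The concentration is filed as 10 mM, unlikely as a test dose, so the dose is not known. Higher means stronger inhibition (inferred from two other growth screens of the library). About 53,000 compounds were tested under these conditions; 1.7% (about 900) showed 50% or more at least once.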
Mtb heat-shock: 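Assay on Mycobacterium tuberculosis, filed only as a heat shock assay from Cornell; the read-out is not stated. The concentration is filed as 10 mM, unlikely as a test dose, so the dose is not known. Higher reads as stronger inhibition (inferred: compounds with an IC50 in retests scored well above the rest). Of about 69,000 compounds tested this way, about 930 (1.4%) reached 50% or more in at least one test.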

Cc1cc(F)ccc1N1CCCC(NC2CCSCC2)C1=O (centres undefined) read Mtb growth Cornell: -0.6719%; Mtb heat-shock: 5.541%. O=C(O)C(c1ccc(Cl)c(F)c1)N1CCN(Cc2ccccn2)CC1 (centres undefined) read Mtb heat-shock: -10.23%. With CN(C)C(=O)Cc1ccc(NC(=O)c2cn(C)nn2)cc1 the screen gave Mtb growth Cornell: -30.65%; Mtb heat-shock: 9.862%. Cc1ccc(NC2CCN(C(=O)Cc3cccs3)CC2)nn1 read Mtb growth Cornell: -3.843%; Mtb heat-shock: 26.53%. Result for CC(C)c1noc(CN(C)C(=O)c2ccccc2-c2nc[nH]n2)n1 was Mtb growth Cornell: -41.88%; Mtb heat-shock: -3.911%. Result for O=C(c1cc(Cl)c2c(c1)OCO2)N1CCN(c2cnccn2)CC1 was Mtb growth Cornell: -8.606%; Mtb heat-shock: -8.923%. With CCN(CC)c1ccc(CNC(=O)N2CCC(C#N)CC2)cc1 the screen gave Mtb growth Cornell: 4.33%; Mtb heat-shock: -23.63%. For O=C(c1cccc(-c2ccc(F)cc2)c1)N1CCCC(O)(CO)CC1 (centres undefined) the result was Mtb growth Cornell: -23.61%; Mtb heat-shock: 17.32%.

Result for O=C(O)C(F)(F)F.O=C(c1cnccn1)N1CCCC2(CCN(c3ccccn3)C2)C1 (centres undefined) was Mtb heat-shock: -26.38%. Cc1cc(C(=O)NC(C)CC(=O)c2ccco2)[nH]n1 (centres undefined) gave Mtb heat-shock: -11.7%. Cc1nc(CN2CCN(CCOc3ccc(C(C)C)c(C)c3)CC2)no1 read Mtb growth Cornell: 8.76%; Mtb heat-shock: -8.333%. O=C(O)C(F)(F)F.O=C(O)C(F)(F)F.[H][C@@]12C[C@H](C(=O)N3CCCO3)CN(Cc3cccnc3)[C@]1([H])CCO2 read Mtb growth Cornell: 10.23%; Mtb heat-shock: -0.4009%. For CCc1n[nH]c(C2CN(CCc3cccs3)CCO2)n1 (centres undefined) the result was Mtb heat-shock: -19.64%. O=C(CCC(=O)N1CCOCC1)NCc1cccnc1-n1cccn1 read Mtb growth Cornell: 25.76%; Mtb heat-shock: 20.79%. Result for CC(Cc1cn(CCc2nc(N)cc(O)n2)nn1)c1ccccc1 (centres undefined) was Mtb heat-shock: -20.12%. For O=C(Nc1cccn(Cc2ccc(F)cc2)c1=O)c1cnc[nH]1 the result was Mtb growth Cornell: 15.84%; Mtb heat-shock: 10.75%.

Result for CC(=O)N1CCN(Cc2ccncc2)CC2(CC(=O)N(C)C2)C1.O=C(O)C(F)(F)F.O=C(O)C(F)(F)F (centres undefined) was Mtb growth Cornell: 24.27%; Mtb heat-shock: -4.515%. Result for CC(C)CCNC(=O)CCc1ccnc2ccccc12 was Mtb growth Cornell: 35.19%; Mtb heat-shock: 15.59%. With Cn1cc(N2CCC(NC(=O)c3ccccc3Cl)C2=O)cn1 (centres undefined) the screen gave Mtb heat-shock: -5.131%. With Cc1ccc(CN(CCCO)Cc2nc3ccccc3[nH]2)s1 the screen gave Mtb growth Cornell: 24.49%; Mtb heat-shock: -17.57%. For Cc1cccc(C(=O)NCc2ccc(S(N)(=O)=O)cc2)n1 the result was Mtb growth Cornell: -30.11%; Mtb heat-shock: 9.891%. For Cc1ccsc1C(=O)NCc1ccnc(OCC(F)(F)F)c1 the result was Mtb heat-shock: -9.961%. With O=C(O)C(F)(F)F.O=C(O)C(F)(F)F.O=C(O)C(F)(F)F.c1ccc(CN2CC[C@]3(C[C@@H](Oc4ccccn4)CO3)C2)nc1 the screen gave Mtb heat-shock: -28.12%. COc1ncccc1CNC(=O)N(Cc1ccccc1F)C1CC1 gave Mtb growth Cornell: 11.3%; Mtb heat-shock: -18.03%.

With O=C(O)C(F)(F)F.O=C(O)C(F)(F)F.[H][C@@]12CCCO[C@]1([H])[C@H](OCc1ccncc1)CN2Cc1ccccc1F the screen gave Mtb growth Cornell: 16.29%; Mtb heat-shock: -30.34%. With CN(C)CC1(O)CCN(C(=O)Cc2ccc3c(c2)CCC3)C1 (centres undefined) the screen gave Mtb growth Cornell: 59.81%; Mtb heat-shock: -13.4%. Result for CC(=O)c1ccccc1-c1nc(CC2CCN(C)CC2)no1 was Mtb growth Cornell: -10.98%; Mtb heat-shock: 8.573%.

The first 3 entries again:

| structure | Mtb growth Cornell | Mtb heat-shock |
|---|---|---|
| `Cc1cc(F)ccc1N1CCCC(NC2CCSCC2)C1=O` (centres undefined) | -0.6719 | 5.541 |
| `O=C(O)C(c1ccc(Cl)c(F)c1)N1CCN(Cc2ccccn2)CC1` (centres undefined) | - | -10.23 |
| `CN(C)C(=O)Cc1ccc(NC(=O)c2cn(C)nn2)cc1` | -30.65 | 9.862 |

From ChEMBL document CHEMBL3988442, “University of Dundee, Small-Polar-MMV Screening Library” (2021).